# According to PubChem BioAssay AID488966 (Southern Research Specialized Biocontainment Screening …, 2010):
# Screen size: about 340,000 compounds; about 55 (0.02%) were called active. Inconclusive results, whose numbers are uncertain, are shown with a selection of clear calls.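 The calls were made as follows: active = phage lysis inhibition, versus mean bacterial control, above a set limit; inconclusive = no clear call, values can overlap the other calls; inactive = the rest.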
# Test: protection from phage-mediated lysis, alamar blue read-out – E. coli UTI89, K1F phage, bacterial capsule biogenesis inhibitors (AID 488966);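 also: capsule biogenesis inhibitors block K1F phage lysis so surviving cells raise fluorescence; higher fluorescence means more inhibition of phage lysis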
# Details: 2 h; inhibition: at 100 µM, stronger effect = higher value unless noted; series mostly up to 300 µM
row,Structure (SMILES),inhibition
1,COc1cc(C2C(C#N)=C(N)Oc3n[nH]c(-c4ccncc4)c32)cc(OC)c1OC (centres undefined),inactive: 1.19%
2,O=C1NC(=O)C(=Cc2ccco2)S1,inconclusive: 17.3%
3,OC(COc1ccc2ccccc2c1)CN1CCN(c2ccc(F)cc2)CC1 (centres undefined),inconclusive: 18.9%
4,O=C(N/N=C/c1ccc[nH]1)c1sc2ccccc2c1Cl,inconclusive: 21.6%
5,CN(C)CCCN1c2ccccc2Sc2ccccc21,inconclusive: 16.6%
6,Cc1cc(C)c2c(=N)c3ccccc3n(CCCCCCCCn3c4ccccc4c(=N)c4c(C)cc(C)nc43)c2n1,inconclusive: 19.6%
7,COc1ccc(CNC(=O)c2cc(-c3ccc(OC)c(OC)c3)on2)cc1,inconclusive: 21.5%
8,CC[C@H](C)Cc1cn([C@@H](CCCCN)C(=O)NCCCCCCCCCCC(=O)N2CCNCC2)nn1,inconclusive: 23.7%
9,Cc1ccc(C)c(N(CC(N)=O)S(C)(=O)=O)c1,inconclusive: 15.1%
10,Nc1ccn(Cc2cccc(Cl)c2)n1,inconclusive: 19%
11,Cc1ccc2nc(SCC(=O)Nc3ccccc3N3CCOCC3)c(C#N)cc2c1,inactive: -1.09%
12,COc1ccc(CNC(=O)C/C(C)=N/NC(=O)COc2ccc(C)cc2Br)cc1,inconclusive: 15.2%
13,Cc1ccsc1/C=N/n1c(COc2ccccc2)n[nH]c1=S,inconclusive: 16.8%
14,COc1ccc(C(c2nnnn2Cc2cccs2)N2CCN(c3ccc(F)cc3)CC2)cc1OC (centres undefined),inconclusive: 16.1%
15,CCC(=O)N1c2ccc(S(=O)(=O)N3CCCCC3)cc2CC1C (centres undefined),inactive: 0.16%
16,COCCN1C(=O)C(CC(=O)Nc2ccc(C(C)=O)cc2)SC1=Nc1ccccc1 (centres undefined),inconclusive: 19.4%
17,Cn1cnc([N+](=O)[O-])c1Sc1nc(N)nc2c1ncn2Cc1ccccc1,inconclusive: 19.1%
18,CCCCN1C(=N)N([C@@H](C)CN2CCC[C@H]2CN2C(N)=NC[C@@H]2Cc2ccccc2)C[C@H]1Cc1ccccc1,inconclusive: 18%
19,O=[N+]([O-])c1ccc(CNc2cccc(Cl)c2)s1,inconclusive: 53.9%
20,CCS(=O)(=O)C1=NN2C(=N)/C(=C\c3ccc(SCc4ccco4)o3)C(=O)N=C2S1,inactive: -0.03%
21,COc1ccc(NC(=O)C2CCCN(c3cnccn3)C2)c(OC)c1 (centres undefined),inconclusive: 19.1%
22,CCn1nc(C(=O)NC2=NCCS2)c2ccccc2c1=O,inconclusive: 17.9%
23,O=C(Nc1ccncc1)C1COc2ccccc2O1 (centres undefined),inconclusive: 19.9%
24,CCCc1cc2c(cc1NC(=O)Cc1ccccc1)OCO2,inconclusive: 80.3%
25,NC(N)=NC(N)=Nc1ccc(SC(F)(F)F)cc1,inconclusive: 16.6%
26,CN1C(=O)C(O)(CC(=O)c2ccc(F)cc2)c2cc(Br)ccc21 (centres undefined),inconclusive: 19.5%
27,COCc1nnc(NC(=O)c2sc3ccccc3c2Cl)s1,inconclusive: 19.2%

row,Structure (SMILES),inhibition
1,O=c1c(Cl)c(NS(=O)(=O)c2ccccc2)cnn1-c1ccccc1,inactive: 0.1%
2,O=C(O)c1[nH]c2ccccc2c1C(c1cc(Cl)cc([N+](=O)[O-])c1O)c1c(C(=O)O)[nH]c2ccccc12,inconclusive: 21%
3,CSc1nnc(-c2cccn(Cc3cccc(Cl)c3)c2=O)o1,inactive: 0.19%
4,Cc1ccc(OCCCCn2ccnc2)c(Cl)c1,inconclusive: 21.4%
5,Cn1c(N)c(C(=O)Nc2cccc(Cl)c2)c(=O)n(C)c1=O,inactive: 0.32%
6,CCC1CCCCN1C(=O)CSc1nnc(CNC(=O)c2cc(OC)c(OC)c(OC)c2)o1 (centres undefined),inconclusive: 20.4%
7,NCCCCCCNS(=O)(=O)c1cccc2c(Cl)cccc12,inconclusive: 17.6%
8,Cc1cc(C)nc(SCc2nnc(SCC(=O)Nc3ccc(Cl)c(C(F)(F)F)c3)o2)n1,"inconclusive: -0.625% [at 50 µM, stronger effect = higher value]"
9,COc1cccc(-c2c(-c3cc(OC)cc(OC)c3)n(C)c3ccc(-c4cnc(N5CCOCC5)nc4)cc23)c1,inconclusive: 17.2%
10,CC(C)c1ccc(NC(=S)NCCc2c[nH]c3ccccc23)cc1,inconclusive: 15.2%
11,CCOCCCNC(=O)CCc1ccc(S(=O)(=O)Nc2ccc(C)cc2)cc1,inactive: -0.65%
12,O=C(c1ccc(-c2cc3ccccc3oc2=O)cc1)N1CCN(c2ccc(Cl)cc2[N+](=O)[O-])CC1,inconclusive: 18.6%
13,O=C(Nc1cc2c3c(c1)CC(=O)N3CCC2)c1c(F)cccc1F,"inactive: 1.43% [at 50 µM, stronger effect = higher value]"
14,O=S(=O)(c1cccc(-c2cn3cc(Cl)ccc3n2)c1)N1CCOCC1,inconclusive: 19.2%
15,Cc1cc(N2CCCCC2)nc(NCc2ccccc2)n1,inconclusive: 15.7%
16,CCN(CC)c1ccc2c(O)cc(=O)oc2c1,inactive: 0.26%
17,CC(NO)/C(=N\O)c1cccs1 (centres undefined),inconclusive: 20.5%
18,C[C@H](NC(=O)c1nc[nH]c1C(=O)N[C@@H](CCCCNC(=O)OC(C)(C)C)C(=O)OC(C)(C)C)c1ccccc1,inactive: 2.05%
19,O=C(NNC(=O)c1cc2cc(OC(F)(F)F)ccc2[nH]1)c1cccc(C(F)(F)F)c1,inconclusive: 20.6%
20,Cc1cccc(-c2n[nH]c(=S)n2-c2ccccc2)c1[N+](=O)[O-],inconclusive: 20.3%
21,O=S(=O)(c1ccc(NC(=S)NN=C(Cc2ccccc2)Cc2ccccc2)cc1)N1CCOCC1,inconclusive: 20.8%
22,CCCCCCCCCCCCCCCC(O)C(N)CO (centres undefined),inconclusive: 17.2%
23,CCN(CC)S(=O)(=O)c1cccc(NC(=O)COC(=O)C2COc3ccccc3O2)c1 (centres undefined),inconclusive: 20%
24,CC(=O)N(C(C)=O)c1cccc(N(Cc2ccccc2)Cc2ccccc2)c1,inconclusive: 20.7%
25,Cc1ccc(OCc2ccc(C(=O)Nc3ccc(C(N)=O)cc3)o2)c([N+](=O)[O-])c1,inconclusive: 21.6%
26,COc1ccc(/C(O)=C2\C(=O)C(=O)N(c3cc(C)on3)C2c2cccc(OC)c2OC)cc1C (centres undefined),inconclusive: 16.1%
27,Clc1ccc2c(N/N=C/c3ccc(Br)cc3)ccnc2c1,inconclusive: 18.5%
